Measurements reported in patent US20150246004A1, “TRANSDERMAL DELIVERY DEVICE AND METHOD” (QuikMed Pty Ltd, priority 2008, published 2015).
Where a name gives a salt, the structure may show the parent alone. Read-outs that look alike come from different tables or passages of the source.

Tests used:
[1] = tested on: skin of the deltoid region
[2] = tested on: skin of the deltoid region; settings: for pain rating on a pain scale from 1-10 during infiltration of Xylocaine: 2 ml 1% Xylocaine intradermally
skin of the forearm = settings: 500 μL in pad, 10 minutes application, 25 g needle
person's skin = settings: device 10, lidocaine approx 2% in water
[3] = tested on: skin of the inner left forearm; settings: 500 μL of 2% solution, pad applied 15 minutes
[4] = Trial D: 0.5 ml of 2% solution in saline, right deltoid, 15 minutes
[5] = Trial B: 0.5 ml of 2% saturated solution in distilled water, left deltoid, 10 minutes

SMILES | depth of needle insertion before marginal pain was felt ([1]; Trial C: 0.5 ml of 2% solution in saline, right deltoid, 15 minutes) | pain felt during infiltration of Xylocaine [2, 4] | pain rating on a pain scale from 1-10 during infiltration of Xylocaine [2, 4] | result of needle insertion into treated site (skin of the forearm; volunteer 1, forearm) | result of needle insertion into treated site (skin of the forearm; volunteer 2, forearm, hydrochloride) | time until anaesthesia is sufficiently induced after application of the pad (person's skin) [min] | time until anaesthetic effect is substantially lost after removal of the pad (person's skin) [min] | depth of needle insertion ([1]; Trial A: 0.5 ml saturated solution (approx 2%) in distilled water, left deltoid, ten minutes, full length of needle shaft, no pain) [mm] | pain felt on needle insertion ([1]; Trial A: 0.5 ml saturated solution in distilled water, left deltoid, ten minutes, needle to 25 mm) | pain felt during infiltration of Xylocaine [2, 5] | pain rating on a pain scale from 1-10 during infiltration of Xylocaine [2, 5] | result of needle insertion into treated site (skin of the forearm; volunteer 2, forearm) | area of the skin anaesthetized, distance from the pad perimeter ([3]; after 10 minutes, prick test to around 1 mm) [cm] | area of the skin anaesthetized, distance from the pad ([3]; after 20 minutes, prick test to around 1 mm) [cm] | anaesthetic effect in prick test ([3]; after 30 minutes)
CCN(CC)CC(=O)Nc1c(C)cccc1C [lidocaine hydrochloride] | approximately 15 mm | Marginal pain was felt | 3-4 | immediate needle prick pain and no insertion was performed | immediate needle prick pain and no insertion was performed |  |  |  |  |  |  |  |  |  | 
CCN(CC)CC(=O)Nc1c(C)cccc1C [lidocaine base, lidocaine] |  |  |  |  |  | ≤ 15 | ≤ 40 | 25 | did not feel any pain | No pain was felt | 1 | able to be inserted into the dermis before irritation was perceived | 1 | 2.5 | the anaesthetic effect was lost
